Results are given in words; binding and its absence hold for the method and conditions named. Binding seen in cells or lysates may run through a third protein. Some entries that bind do so weakly or less than the wild type. For part of these data: Where a sequence is shown, tags or fusion partners need not be part of it.
Tests used:
[1] = target: Procaspase 8, endogenous, in human cancer cell lysates (human) (UniProt Q14790); assay: co-immunoprecipitation (figure legend)
[2] = target: Procaspase 8, endogenous, in human cancer cell lysates (human) (UniProt Q14790); assay: co-immunoprecipitation from MIP/5FU and MiaPaca/CPT cell fractions
[3] = target: Bcl-2, endogenous, in human cancer cell lysates (human) (UniProt P10415); assay: reciprocal co-immunoprecipitation from transfected MIP/5FU and MiaPaCa/CPT cells
[4] = target: T1, SPARC (Secreted Protein, Acidic, Rich in Cysteines), His-tagged, stably expressed in MIP101 cells (MIP/SP) (human) (UniProt P09486); assay: co-immunoprecipitation
T1 sequence (looked up): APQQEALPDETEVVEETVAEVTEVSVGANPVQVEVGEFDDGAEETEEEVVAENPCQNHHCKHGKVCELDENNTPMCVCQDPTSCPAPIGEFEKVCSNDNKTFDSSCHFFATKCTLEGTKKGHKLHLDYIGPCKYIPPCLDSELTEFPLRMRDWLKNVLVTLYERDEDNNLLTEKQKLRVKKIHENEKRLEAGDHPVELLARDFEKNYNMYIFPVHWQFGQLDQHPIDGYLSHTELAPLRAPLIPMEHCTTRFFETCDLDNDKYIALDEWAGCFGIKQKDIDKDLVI

Amino acid sequences for entries named in this document (tags omitted).
UniProt Q14790: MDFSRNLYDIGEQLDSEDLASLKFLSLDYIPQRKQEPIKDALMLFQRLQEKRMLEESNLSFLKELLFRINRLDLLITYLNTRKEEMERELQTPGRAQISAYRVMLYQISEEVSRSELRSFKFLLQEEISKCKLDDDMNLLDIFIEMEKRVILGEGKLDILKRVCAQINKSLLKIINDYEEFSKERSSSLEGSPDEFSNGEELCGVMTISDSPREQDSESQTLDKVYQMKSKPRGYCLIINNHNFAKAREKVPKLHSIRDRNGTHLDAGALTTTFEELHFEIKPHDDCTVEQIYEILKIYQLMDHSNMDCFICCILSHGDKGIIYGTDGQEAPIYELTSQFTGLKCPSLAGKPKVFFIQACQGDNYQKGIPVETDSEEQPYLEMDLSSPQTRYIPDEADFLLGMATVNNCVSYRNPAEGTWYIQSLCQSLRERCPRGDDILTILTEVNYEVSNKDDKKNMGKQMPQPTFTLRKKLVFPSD
UniProt P10415: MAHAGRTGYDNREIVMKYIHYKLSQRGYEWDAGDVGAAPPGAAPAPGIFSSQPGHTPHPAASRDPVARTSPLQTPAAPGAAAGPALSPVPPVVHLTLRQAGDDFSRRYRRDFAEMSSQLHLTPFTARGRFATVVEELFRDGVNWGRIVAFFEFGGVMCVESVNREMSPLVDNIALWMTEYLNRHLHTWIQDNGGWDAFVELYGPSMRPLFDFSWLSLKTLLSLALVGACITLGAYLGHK

[5] = target: T2, SPARC, endogenous, in human cell lysates (HUVEC, HCT116) (human) (UniProt P09486); assay: co-immunoprecipitation, HCT116 membrane fraction
T2 sequence (looked up): T1 sequence (looked up)

[6] = target: T1, SPARC (Secreted Protein, Acidic, Rich in Cysteines), His-tagged, stably expressed in MIP101 cells (MIP/SP) (human); assay: co-immunoprecipitation, membrane fraction (figure legend)
[7] = target: T1, SPARC (Secreted Protein, Acidic, Rich in Cysteines), His-tagged, stably expressed in MIP101 cells (MIP/SP) (human); assay: reciprocal co-immunoprecipitation, MIP/SP membrane fraction
[8] = target: T2, SPARC, endogenous, in human cell lysates (HUVEC, HCT116) (human); assay: reciprocal co-immunoprecipitation, HCT116 membrane fraction
[9] = target: T2, SPARC, endogenous, in human cell lysates (HUVEC, HCT116) (human); assay: co-immunoprecipitation, membrane fraction (figure legend; FIG. 5B is HCT116)

Measured: binding

Bcl-2, endogenous, in human cancer cell lysates (from UniProt P10415 1-239)
binds: [1] | [2]

wild type procaspase 8 expressed from pcDNA3.1/myc-His (from UniProt Q14790 1-479) (enzyme)
binds: [3]

Procaspase 8, endogenous, in human cancer cell lysates (from UniProt Q14790 1-479) (enzyme)
not listed: [1] | [2] | [3]
binds: all other assays above

Reference: patent US20140363377A1
